Patent publication US20030224485A1, “Expression system for ABC transporters” (priority 2002, published 2003)
No constants are given. Whether binding was seen depends on the method and setting. Binding seen in cells or lysates may run through a third protein. Some binding calls cover weakened binding; strength is not graded here.

Biological target: T1, tryptic C-half of native bovine ABCR (bovine) (UniProt F1MWM0)
T1 sequence (looked up): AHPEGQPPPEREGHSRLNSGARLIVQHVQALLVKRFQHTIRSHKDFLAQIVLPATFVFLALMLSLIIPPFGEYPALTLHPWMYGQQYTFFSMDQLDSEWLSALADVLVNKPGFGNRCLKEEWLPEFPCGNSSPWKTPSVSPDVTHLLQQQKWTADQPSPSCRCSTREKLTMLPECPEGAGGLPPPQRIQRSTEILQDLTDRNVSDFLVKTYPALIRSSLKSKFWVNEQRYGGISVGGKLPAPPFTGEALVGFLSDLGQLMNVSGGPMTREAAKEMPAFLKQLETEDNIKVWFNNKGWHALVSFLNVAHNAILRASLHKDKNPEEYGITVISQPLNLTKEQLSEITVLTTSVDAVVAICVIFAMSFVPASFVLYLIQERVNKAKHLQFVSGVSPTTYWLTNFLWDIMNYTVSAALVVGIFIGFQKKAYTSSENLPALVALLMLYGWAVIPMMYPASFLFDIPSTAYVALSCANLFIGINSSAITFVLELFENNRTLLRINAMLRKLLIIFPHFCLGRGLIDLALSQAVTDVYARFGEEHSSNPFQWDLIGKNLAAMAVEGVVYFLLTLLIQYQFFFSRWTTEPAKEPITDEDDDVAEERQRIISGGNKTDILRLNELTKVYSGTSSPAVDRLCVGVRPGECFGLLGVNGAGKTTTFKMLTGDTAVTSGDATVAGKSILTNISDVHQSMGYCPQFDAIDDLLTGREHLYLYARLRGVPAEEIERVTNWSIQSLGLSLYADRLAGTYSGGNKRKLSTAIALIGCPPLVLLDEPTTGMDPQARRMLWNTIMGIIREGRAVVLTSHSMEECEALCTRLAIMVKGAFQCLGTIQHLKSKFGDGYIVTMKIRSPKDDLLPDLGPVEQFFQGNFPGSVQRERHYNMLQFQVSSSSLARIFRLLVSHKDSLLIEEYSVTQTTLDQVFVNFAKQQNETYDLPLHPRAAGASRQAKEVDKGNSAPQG
Experiment: co-purification of tryptic halves on Rim3F4-Sepharose, Western blot

binding: binds
B1: tryptic N-half of native bovine ABCR (protein, UniProt F1MWM0 1-1325, looked up)
chain: MGFARQIKLLLWKNWTLRKRQKIRFVVELVWPLSLFLVLIWLRNVNPLYSKHECHFPNKAMPSAGMLPWLQGIFCNVNNPCFQSPTAGESPGIVSNYNNSILARVYRDFQELLMDAPESQHLGQVWRELRTLSQLMNTLRMHPERIAGRGIRIREVLKDDEMLTLFLVKNIGLSDSVVYLLVNSQVRPEQFARGVPDLMLKDIACSEALLERFLIFPQRRAAQTVRGSLCSLSQGTLQWMEDTLYANVDFFKLFHVFPRLLDSRSQGMNLRSWGRILSDMSPRIQEFIHRPSVQDLLWVTRPLVQTGGPETFTQLMGILSDLLCGYPEGGGSRVFSFNWYEDNNYKAFLGIDSTRKDPIYSYDERTTTFCNALIQSLESNPLTKIAWRAAKPLLMGKILFTPDSPATRRILKNANSTFEELERVRKLVKVWEEVGPQIWYFFDKSTQMSMIRDTLENPTVKAFWNRQLGEEGITAEAVLNFLYNGPREGQADDVDNFNWRDIFNITDRALRLANQYLECLILDKFESYDDEFQLTQRALSLLEENRFWAGVVFPDMHPWTSSLPPHVKYKIRMDIDVVEKTNKIKDRYWDSGPRADPVEDFRYIWGGFAYLQDMVEHGITRSQAQEEVPVGIYLQQMPYPCFVDDSFMIILNRCFPIFMVLAWIYSVSMTVKSIVLEKELRLKETLKNQGVSNRVIWCTWFLDSFSIMSMSICLLTIFIMHGRILHYSNPFILFLFLLAFSIATIMQCFLLSTFFSRASLAAACSGVIYFTLYLPHILCFAWQDRITADMKMAVSLLSPVAFGFGTEYLARFEEQGVGLQWSNIGNSPMEGDEFSFLMSMKMMLLDAALYGLLAWYLDQVFPGDYGTPLPWYFLLQESYWLGGEGCSTREERALEKTEPITEEMEDPEYPEGINDCFFERELPGLVPGVCVKNLVKIFEPYGRPAVDRLNITFYESQITAFLGHNGAGKTTTLSIMTGLLPPTSGTVLVGGKDIETNLDAIRQSLGMCPQHNILFHHLTVAEHILFYAQLKGRSWDKAQLEMEAMLEDTGLHHKRNEEAQDLSGGVQRKLSVAIAFVGDAKVVVLDEPTSGVDPYSRRSIWDLLLKYRSGRTIIMSTHHMDEADILGDRIAIISQGRLYCSGTPLFLKNCFGTGFYLTLVRRMKTIQSQGRGREATCSCASKGFSVRCPACAEAITPEQVLDGDVNELTDMVHHHVPEAKLVECIGQELIFLLPNKNFKQRAYASLFRELEETLADLGLSSFGISDTPLEEIFLKVTEDLDSGHLFAGGTQQKRENINLRHPCSGPSEKAGQTPQGSSSHPREPA
